Assay: Evaluation of kneading: transmittance at 1,150 nm of melt-kneaded resin film
Type: physicochemical
Conditions: film 0.15 mm; for Evaluation of transmittance at wavelength of 1150 nm, Acrylic: acrylic resin 12.0 g, melt-kneading 180° C., hot press 160° C.; for Evaluation of transmittance at wavelength of 1150 nm, Polycarbonate: polycarbonate resin 12.0 g, melt-kneading 260° C., hot press 230° C.; for Evaluation of transmittance at wavelength of 1150 nm, Polystyrene: polystyrene resin 12.0 g, melt-kneading 200° C., hot press 180° C.
Protocol: A resin composition, which was a kneaded material of the specific compound or the comparative compound and a resin, was prepared, and the following kneading evaluation was performed.
The specific compounds and comparative compounds shown in Table 3 below were weighed in the contents shown in Table 3, and a sample obtained by shaking and mixing 12.0 g of the resin shown in Table 3 was prepared. A polycarbonate resin (indicated as Polycarbonate in Table 3), a polystyrene resin, and an acrylic resin were used as the resin. In Table 3, the polycarbonate resin is indicated as Polycarbonate, the polystyrene resin is indicated as Polystyrene, and the acrylic resin is indicated as Acrylic.
The obtained sample was put into a supply port of a biaxial kneader (Labo Plastomill, manufactured by Toyo Seiki Seisaku-sho, Ltd.) and subjected to melt-kneading to obtain a resin composition as a kneaded material. The obtained resin composition was pressed using a heat press machine to obtain a resin film having a thickness of 0.15 mm.
In a case where a polycarbonate resin (SD PORYCA (registered trademark) 301-10, manufactured by Sumika Polycarbonate Co., Ltd.) was used as the resin, the melt-kneading temperature was set to 260° C. and the hot press temperature was set to 230° C.
In a case where a polystyrene resin (manufactured by Sigma-Aldrich Co. LLC) was used as the resin, the melt-kneading temperature was set to 200° C. and the hot press temperature was set to 180° C.
In a case where an acrylic resin (G1000, manufactured by Kuraray Co., Ltd.) was used as the resin, the melt-kneading temperature was set to 180° C. and the hot press temperature was set to 160° C.
A transmittance of the obtained resin film at a wavelength of 1,150 nm was measured with a spectrophotometer, and the measured value was evaluated according to the following standard. In Table 3, it is described in “Evaluation of transmittance at wavelength of 1150 nm”. As the transmittance is lower, the near infrared blocking property is better.
• A: transmittance at a wavelength of 1,150 nm was less than 10%. • B: transmittance at a wavelength of 1,150 nm was 10% or more and less than 50%. • C: transmittance at a wavelength of 1,150 nm was 50% or more.

| SMILES | Evaluation of transmittance at wavelength of 1150 nm, Acrylic | Evaluation of transmittance at wavelength of 1150 nm, Polycarbonate | Evaluation of transmittance at wavelength of 1150 nm, Polystyrene |
| --- | --- | --- | --- |
| Cc1ccc(N(c2ccc(C)cc2)c2ccc([N+](=C3C=CC(=[N+](c4ccc(N(c5ccc(C)cc5)c5ccc(C)cc5)cc4)c4ccc(N(c5ccc(C)cc5)c5ccc(C)cc5)cc4)C=C3)c3ccc(N(c4ccc(C)cc4)c4ccc(C)cc4)cc3)cc2)cc1 [A-28] | A (transmittance at a wavelength of 1,150 nm was less than 10%) | B (transmittance at a wavelength of 1,150 nm was 10% or more and less than 50%) | A (transmittance at a wavelength of 1,150 nm was less than 10%) |
| Cc1ccc(N(c2ccc(C)cc2)c2ccc([N+](=C3C=CC(=[N+](c4ccc(N(c5ccc(C)cc5)c5ccc(C)cc5)cc4)c4ccc(N(c5ccc(C)cc5)c5ccc(C)cc5)cc4)C=C3)c3ccc(N(c4ccc(C)cc4)c4ccc(C)cc4)cc3)cc2)cc1 [A-31] | A (transmittance at a wavelength of 1,150 nm was less than 10%) | A (transmittance at a wavelength of 1,150 nm was less than 10%) | A (transmittance at a wavelength of 1,150 nm was less than 10%) |
| Cc1ccc(N(c2ccc(C)cc2)c2ccc([N+](=C3C=CC(=[N+](c4ccc(N(c5ccc(C)cc5)c5ccc(C)cc5)cc4)c4ccc(N(c5ccc(C)cc5)c5ccc(C)cc5)cc4)C=C3)c3ccc(N(c4ccc(C)cc4)c4ccc(C)cc4)cc3)cc2)cc1.O=S(=O)([C-](S(=O)(=O)C(F)(F)F)S(=O)(=O)C(F)(F)F)C(F)(F)F.O=S(=O)([C-](S(=O)(=O)C(F)(F)F)S(=O)(=O)C(F)(F)F)C(F)(F)F [A-34] | A (transmittance at a wavelength of 1,150 nm was less than 10%) | A (transmittance at a wavelength of 1,150 nm was less than 10%) | A (transmittance at a wavelength of 1,150 nm was less than 10%) |
| Cc1ccc(N(c2ccc(C)cc2)c2ccc([N+](=C3C=CC(=[N+](c4ccc(N(c5ccc(C)cc5)c5ccc(C)cc5)cc4)c4ccc(N(c5ccc(C)cc5)c5ccc(C)cc5)cc4)C=C3)c3ccc(N(c4ccc(C)cc4)c4ccc(C)cc4)cc3)cc2)cc1 [A-35] | A (transmittance at a wavelength of 1,150 nm was less than 10%) | A (transmittance at a wavelength of 1,150 nm was less than 10%) | A (transmittance at a wavelength of 1,150 nm was less than 10%) |
| Cc1ccc(N(c2ccc(C)cc2)c2ccc([N+](=C3C=CC(=[N+](c4ccc(N(c5ccc(C)cc5)c5ccc(C)cc5)cc4)c4ccc(N(c5ccc(C)cc5)c5ccc(C)cc5)cc4)C=C3)c3ccc(N(c4ccc(C)cc4)c4ccc(C)cc4)cc3)cc2)cc1.c1ccc([B-](c2ccccc2)(c2ccccc2)c2ccccc2)cc1.c1ccc([B-](c2ccccc2)(c2ccccc2)c2ccccc2)cc1 [A-36] | A (transmittance at a wavelength of 1,150 nm was less than 10%) | A (transmittance at a wavelength of 1,150 nm was less than 10%) | A (transmittance at a wavelength of 1,150 nm was less than 10%) |
| Cc1cc(C)c(N(c2ccc([N+](=C3C=CC(=[N+](c4ccc(N(c5c(C)cc(C)cc5C)c5c(C)cc(C)cc5C)cc4)c4ccc(N(c5c(C)cc(C)cc5C)c5c(C)cc(C)cc5C)cc4)C=C3)c3ccc(N(c4c(C)cc(C)cc4C)c4c(C)cc(C)cc4C)cc3)cc2)c2c(C)cc(C)cc2C)c(C)c1.Fc1c(F)c(F)c([B-](c2c(F)c(F)c(F)c(F)c2F)(c2c(F)c(F)c(F)c(F)c2F)c2c(F)c(F)c(F)c(F)c2F)c(F)c1F.Fc1c(F)c(F)c([B-](c2c(F)c(F)c(F)c(F)c2F)(c2c(F)c(F)c(F)c(F)c2F)c2c(F)c(F)c(F)c(F)c2F)c(F)c1F [A-44] | A (transmittance at a wavelength of 1,150 nm was less than 10%) | A (transmittance at a wavelength of 1,150 nm was less than 10%) | A (transmittance at a wavelength of 1,150 nm was less than 10%) |
| Cc1ccc(N(c2ccc(C)cc2)c2ccc([N+](=C3C=CC(=[N+](c4ccc(N(c5ccc(C)cc5)c5ccc(C)cc5)cc4)c4ccc(N(c5ccc(C)cc5)c5ccc(C)cc5)cc4)C=C3)c3ccc(N(c4ccc(C)cc4)c4ccc(C)cc4)cc3)cc2)cc1 [Comparative compound 2, reference compound] | C (transmittance at a wavelength of 1,150 nm was 50% or more) | C (transmittance at a wavelength of 1,150 nm was 50% or more) | C (transmittance at a wavelength of 1,150 nm was 50% or more) |
| CCCCN(CCCC)c1ccc(N(c2ccc(N(CCCC)CCCC)cc2)c2ccc([N+](=C3C=CC(=[N+](c4ccc(N(c5ccc(N(CCCC)CCCC)cc5)c5ccc(N(CCCC)CCCC)cc5)cc4)c4ccc(N(c5ccc(N(CCCC)CCCC)cc5)c5ccc(N(CCCC)CCCC)cc5)cc4)C=C3)c3ccc(N(c4ccc(N(CCCC)CCCC)cc4)c4ccc(N(CCCC)CCCC)cc4)cc3)cc2)cc1.[F][Sb-]([F])([F])([F])([F])[F].[F][Sb-]([F])([F])([F])([F])[F] [Comparative compound 3, reference compound] | C (transmittance at a wavelength of 1,150 nm was 50% or more) | C (transmittance at a wavelength of 1,150 nm was 50% or more) | C (transmittance at a wavelength of 1,150 nm was 50% or more) |
| CCCCN(CCCC)c1ccc([N+](=C2C=CC(=[N+](c3ccc(N(CCCC)CCCC)cc3)c3ccc(N(CCCC)CCCC)cc3)C=C2)c2ccc(N(CCCC)CCCC)cc2)cc1.[F][Sb-]([F])([F])([F])([F])[F].[F][Sb-]([F])([F])([F])([F])[F] [Comparative compound 4, reference compound] | C (transmittance at a wavelength of 1,150 nm was 50% or more) | C (transmittance at a wavelength of 1,150 nm was 50% or more) | C (transmittance at a wavelength of 1,150 nm was 50% or more) |
